# Laboratory results: the supplement of paper PMC6414424
# Where a name gives a salt, the structure may show the parent alone. ± gives the standard deviation of the averaged measurements. Some of the results follow.
# System: APPdp1-6 iPSC-derived neurons
# Test: pThr231Tau/total Tau ratio Z-score vs DMSO vehicle wells; higher = more pThr231Tau relative to total Tau
# Conditions: 5 µM; treatment time 5 days
row,Structure (SMILES),pThr231Tau/total Tau ratio Z-score
1,"O=C(O)C1=C(CSc2nnnn2CS(=O)(=O)O)CS[C@@H]2[C@H](NC(=O)[C@H](O)c3ccccc3)C(=O)N12 [CEFONICID SODIUM, antibacterial]",-1.1 ± 0.4
2,CCOC1O[C@H]([C@@H](COCc2ccccc2)OCc2ccccc2)[C@H](OCc2ccccc2)[C@H]1O (some centres not stated) [Prestw-1019],-0.523 ± 0.034
3,CNCC(O)c1ccc(O)c(O)c1 (configuration not stated) [Prestw-1480],0.339 ± 0.17
4,COc1ccc2cc3[n+](cc2c1OC)CCc1cc2c(cc1-3)OCO2 [Berberine],-4.36 ± 0.68
5,CC(=O)NC[C@H]1CN(c2ccc(N3CCOCC3)c(F)c2)C(=O)O1 [Prestw-1429],0.207 ± 0.52
6,NC(=O)c1cc[n+](CC2=C(C(=O)[O-])N3C(=O)[C@@H](NC(=O)Cc4cccs4)[C@H]3SC2)cc1,1.7 ± 1.6
7,Cc1nccn1CC1CCc2c(c3ccccc3n2C)C1=O (configuration not stated) [Prestw-1058],0.595 ± 1.4
8,O=C1C(O)=C(O)C(=O)C(O)=C1O [Prestw-835],-0.484 ± 1.2
9,COc1ccc2c(c1)c(CC(=O)OCC(=O)O)c(C)n2C(=O)c1ccc(Cl)cc1 [Prestw-296],0.692 ± 1.2
10,"Cc1c2oc3c(C)ccc(C(=O)N[C@@H]4C(=O)N[C@H](C(C)C)C(=O)N5CCC[C@H]5C(=O)N(C)CC(=O)N(C)[C@@H](C(C)C)C(=O)O[C@@H]4C)c3nc-2c(C(=O)N[C@@H]2C(=O)N[C@H](C(C)C)C(=O)N3CCC[C@H]3C(=O)N(C)CC(=O)N(C)[C@@H](C(C)C)C(=O)O[C@@H]2C)c(N)c1=O [DACTINOMYCIN, antineoplastic, intercalating agent]",-0.69 ± 0.96
11,CCOCCn1c(N2CCCN(C)CC2)nc2ccccc21 [Prestw-1274],-0.248 ± 0.11
12,CC1=C(C(=O)O)N2C(=O)[C@@H](NC(=O)[C@H](N)c3ccccc3)[C@H]2SC1 [Prestw-358],0.518 ± 0.4
13,CC[C@H](C)C(=O)O[C@H]1C[C@H](O)C=C2C=C[C@H](C)[C@H](CC[C@@H](O)C[C@@H](O)CC(=O)O)[C@H]21 [Prestw-1319],-0.435 ± 0.7
14,Cc1cccc(C)c1NC(=O)CN1CCN(CCCC(c2ccc(F)cc2)c2ccc(F)cc2)CC1 [Prestw-381],-0.903 ± 1
15,NC[C@H]1O[C@H](O[C@H]2[C@H](O)[C@@H](O[C@H]3O[C@H](CO)[C@@H](O)[C@H](N)[C@H]3O)[C@H](N)C[C@@H]2N)[C@H](N)[C@@H](O)[C@@H]1O [BECANAMYCIN SULFATE    Therap cat: antibiotic],1.11 ± 1.5
16,CC(=O)O[C@]1(C(C)=O)CC[C@H]2[C@@H]3C=C(C)C4=CC(=O)CC[C@]4(C)[C@H]3CC[C@@]21C [Prestw-956],-0.734 ± 1.8
17,Nc1nnc(-c2cccc(Cl)c2Cl)c(N)n1 [Prestw-1492],-0.606 ± 0.018
18,CC[C@@]1(O)C(=O)OCc2c1cc1n(c2=O)Cc2cc3c(CN(C)C)c(O)ccc3nc2-1 [Prestw-1196],-1.26 ± 1.2
19,Clc1cc(Cl)c(OCC#CI)cc1Cl [Prestw-1269],0.132 ± 0.25
20,O=C(Nc1ccccc1)OCC(CN1CCCCC1)OC(=O)Nc1ccccc1 (configuration not stated) [Prestw-300],1.19 ± 2.1
21,CCCC(=O)Nc1ccc(OCC(O)CNC(C)C)c(C(C)=O)c1 (configuration not stated) [Prestw-69],0.61 ± 0.22
22,"C[C@@H]1O[C@@H](OC[C@H]2O[C@@H](Oc3c(-c4ccc(O)c(O)c4)oc4cc(O)cc(O)c4c3=O)[C@H](O)[C@@H](O)[C@@H]2O)[C@H](O)[C@H](O)[C@H]1O [RUTOSIDE  (rutin), vascular protectant]",-1.25 ± 0.17
23,CN1[C@@H]2CC[C@H]1C[C@@H](OC(c1ccccc1)c1ccccc1)C2 [Prestw-1236],-1.15 ± 0.65
24,CC(=O)Nc1ccc(OCC(O)CNC(C)C)cc1 (configuration not stated) [Prestw-332],-0.0593 ± 1.4

row,Structure (SMILES),pThr231Tau/total Tau ratio Z-score
1,CC(=O)OCC(=O)[C@@]12OC3(CCCC3)O[C@@H]1C[C@H]1[C@@H]3CCC4=CC(=O)C=C[C@]4(C)[C@@]3(F)[C@@H](O)C[C@@]12C [Prestw-1476],-1.16 ± 0.59
2,N=C(N=C(N)N)N1CCOCC1 [Prestw-84],0.166 ± 0.33
3,"N[C@@H](CC(=O)N1CCn2c(nnc2C(F)(F)F)C1)Cc1cc(F)c(F)cc1F [SITAGLIPTIN, DPP4 inhibitor, antidiabetic]",0.602 ± 1.7
4,C[N+]1(C)C2CCC1CC(OC(=O)C(O)c1ccccc1)C2 (configuration not stated),0.356 ± 0.043
5,CNCC[C@@H](Oc1ccccc1C)c1ccccc1 [Prestw-1463],-0.658 ± 0.35
6,"CNCC[C@@H](Oc1ccccc1C)c1ccccc1 [ATOMOXETINE HYDROCHLORIDE, norepinephrine reuptake inhibitor]",-1.07 ± 0.21
7,O=C(CCCCC(=O)Nc1c(I)cc(I)c(C(=O)O)c1I)Nc1c(I)cc(I)c(C(=O)O)c1I [IODIPAMIDE    Therap cat: radioopaque agent],-0.918 ± 0.53
8,O=C(CCCCC(=O)Nc1c(I)cc(I)c(C(=O)O)c1I)Nc1c(I)cc(I)c(C(=O)O)c1I [Prestw-939],-0.442 ± 0.66
9,O=C(O)Cc1cc(I)c(Oc2ccc(O)c(I)c2)c(I)c1 [Prestw-202],-1.11 ± 0.029
10,COCCCOc1ccnc(C[S+]([O-])c2nc3ccccc3[nH]2)c1C (configuration not stated) [Prestw-1495],-1.34 ± 0.82
11,CCCc1nc2c(C)cc(-c3nc4ccccc4n3C)cc2n1Cc1ccc(-c2ccccc2C(=O)O)cc1 [Prestw-1350],0.368 ± 0.07
12,"COCCCOc1cc(C[C@@H](C[C@H](N)[C@@H](O)C[C@H](C(=O)NCC(C)(C)C(N)=O)C(C)C)C(C)C)ccc1OC [ALISKIREN HEMIFUMARATE, renin inhibitor]",0.773 ± 1.8
13,C#C[C@]1(OC(C)=O)CC[C@H]2[C@@H]3CCC4=CC(=O)CC[C@@H]4[C@H]3CC[C@@]21C,0.0772 ± 1.2
14,CCCCOC(=O)c1ccc(O)cc1 [Prestw-894],1.1 ± 2.9
15,N=C(N)N1CCc2ccccc2C1 [Prestw-372],0.163 ± 0.94
16,CC1=CC(=O)c2ccccc2C1=O [Menadione],1.83 ± 0.83
17,CCCCC1C(=O)N(c2ccccc2)N(c2ccccc2)C1=O [Prestw-1310],-0.834 ± 0.1
18,CN(C)CCN(Cc1ccc(Cl)cc1)c1ccccn1 [Prestw-807],0.117 ± 0.45
19,NS(=O)(=O)Cc1noc2ccccc12 [Prestw-1162],1.19 ± 0.99
20,COc1ccc2c(c1)C(=O)N(CCc1ccc(S(=O)(=O)NC(=O)NC3CCCCC3)cc1)C(=O)C2(C)C [Prestw-991],-0.647 ± 0.29
21,Cc1cn([C@H]2C[C@H](N=[N+]=[N-])[C@@H](CO)O2)c(=O)[nH]c1=O [Prestw-333],-0.281 ± 0.22
22,COC(=O)[C@@H](N)CS [MECYSTEINE HYDROCHLORIDE    Therap cat: mucolytic],0.691 ± 0.87
23,COc1ccc([C@@H]2Sc3ccccc3N(CCN(C)C)C(=O)[C@@H]2OC(C)=O)cc1 [Prestw-134],0.808 ± 0.61
24,"CN(C)[C@@H]1C(=O)C(C(=O)NCN2CCCC2)=C(O)[C@@]2(O)C(=O)C3=C(O)c4c(O)cccc4[C@@](C)(O)[C@H]3C[C@@H]12 [ROLITETRACYCLINE, antibacterial]",0.64 ± 0.76

# Retrieved one by one from above, 3 records:
row,Structure (SMILES),pThr231Tau/total Tau ratio Z-score
20,O=C(Nc1ccccc1)OCC(CN1CCCCC1)OC(=O)Nc1ccccc1 (configuration not stated) [Prestw-300],1.19 ± 2.1
23,COc1ccc([C@@H]2Sc3ccccc3N(CCN(C)C)C(=O)[C@@H]2OC(C)=O)cc1 [Prestw-134],0.808 ± 0.61
17,CCCCC1C(=O)N(c2ccccc2)N(c2ccccc2)C1=O [Prestw-1310],-0.834 ± 0.1

# Additional entries:

row,Structure (SMILES),pThr231Tau/total Tau ratio Z-score
1,CC(C[N+](C)(C)C)OC(N)=O (configuration not stated) [Prestw-1073],0.628 ± 0.36
2,COc1cccc(N(C)C(=S)Oc2ccc3c(c2)CCCC3)n1 [Prestw-1140],0.468 ± 0.053
3,NCCc1cc[nH]n1 [Prestw-43],0.981 ± 0.4
4,CCCNC(C)C(=O)Nc1c(C)csc1C(=O)OC (configuration not stated) [Prestw-1032],0.569 ± 1.4
5,Cc1c(NC(C)C)c(=O)n(-c2ccccc2)n1C [Prestw-722],0.356 ± 1
6,CC(C=CC=C(C)C=CC1=C(C)CCCC1(C)C)=CC=CC=C(C)C=CC=C(C)C=CC1=C(C)CCCC1(C)C [B-Carotene],0.0884 ± 0.85
7,CC1(C)[C@@H](O)CC[C@]2(C)[C@H]3C(=O)C=C4[C@@H]5C[C@@](C)(C(=O)O)CC[C@]5(C)CC[C@@]4(C)[C@]3(C)CC[C@@H]12,0.329 ± 1.6
8,C[C@]12CCC(=O)C=C1C=C[C@@H]1[C@@H]2CC[C@@]2(C)[C@H]1CC[C@@]21CCC(=O)O1 [Prestw-1259],0.9 ± 0.53
9,NC(=O)OCC(O)COc1ccc(Cl)cc1 (configuration not stated) [Prestw-234],-0.109 ± 1
10,CC1(C)S[C@@H]2[C@H](NC(=O)[C@H](N)c3ccccc3)C(=O)N2[C@H]1C(=O)OC1OC(=O)c2ccccc21 (some centres not stated) [Prestw-1010],0.364 ± 0.016
11,O=C(O)C(O)C(O)C(=O)O (configuration not stated) [Tartaric acid],0.784 ± 0.8
12,CN1C(C(=O)Nc2ccccn2)=C(O)c2ccccc2S1(=O)=O [Prestw-211],-0.355 ± 1.8
13,COCCOC(=O)C1=C(C)NC(C)=C(C(=O)OC(C)C)C1c1cccc([N+](=O)[O-])c1 (configuration not stated) [Prestw-918],0.0642 ± 0.27
14,NCCS,0.879 ± 1.2
15,COC(=O)CCc1ccc(OCC(O)CNC(C)C)cc1 (configuration not stated) [Prestw-1137],1.19 ± 0.46
16,NCC(=O)CCC(=O)O [5-Aminolevulinic acid],0.678 ± 2
17,NC(=O)c1ccc[n+]([C@@H]2O[C@H](COP(=O)([O-])OP(=O)(O)OC[C@H]3O[C@@H](n4cnc5c(N)ncnc54)[C@H](O)[C@@H]3O)[C@@H](O)[C@H]2O)c1 [Prestw-741],-0.0357 ± 0.091
18,CNCCC=C1c2ccccc2C=Cc2ccccc21 [Prestw-513],-1.26 ± 0.31
19,COc1ccc(CN(CCN(C)C)c2ncccn2)cc1 [THONZYLAMINE HYDROCHLORIDE    Therap cat: antihistamine],0.693 ± 1.6
20,Cc1ccc(C)c(OCCCC(C)(C)C(=O)O)c1 [Prestw-214],-1.06 ± 0.91
21,O=C(CCCN1CCC(O)(c2ccc(Cl)cc2)CC1)c1ccc(F)cc1 [Prestw-115],-0.281 ± 0.33
22,CN(Cc1ccc(C(C)(C)C)cc1)Cc1cccc2ccccc12 [Prestw-1252],0.744 ± 0.4
23,CCCCCCCCNC(C)C(O)c1ccc(SC(C)C)cc1 (configuration not stated) [Prestw-421],-2.94 ± 0.1
24,C[C@H]1O[C@@H](O[C@H]2[C@@H](O)C[C@H](O[C@H]3[C@@H](O)C[C@H](O[C@H]4CC[C@@]5(C)[C@H](CC[C@@H]6[C@@H]5CC[C@]5(C)[C@@H](C7=CC(=O)OC7)CC[C@]65O)C4)O[C@@H]3C)O[C@@H]2C)C[C@H](O)[C@@H]1O,-4.21 ± 0.55
